Values from PubChem BioAssay AID602196 (INSERM, 2012).
Purpose: 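Knock-downs that protect lung cancer cells from cisplatin or sensitise them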. Cells: human A549 lung cancer cells. Knock-down reagent: siRNA pair against human genes. Timing: 48 h transfection before cisplatin; time from cisplatin to read-out not stated. Conditions: cisplatin at a dose killing half of control-siRNA cells; exact dose and duration not given. Measured: 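Cisplatin cell death as a shift from the 50% death seen with control siRNA; siRNAs toxic or growth-blocking alone scored 0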. Scale: two-siRNA summed score (-2 to +2): higher = both siRNAs protect from cisplatin killing; -2 means both sensitise; mean protection from cisplatin (shift in death) and protection from cisplatin (shift in death), siRNA C and protection from cisplatin (shift in death), siRNA D: higher = protection from cisplatin killing. Active means: 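siRNAs harmful alone (LDH or WST-1) get 0; others get +1 for less and -1 for more cisplatin killing; genes are active when the two siRNAs give the same sign, summing to ±2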. Meaning of the calls: active = both siRNAs shift cisplatin killing the same way; inactive = no consistent shift, or siRNA harmful alone.
In all, the deposit lists about 23,000 reagents; shown is an unselected part. Of all reagents, 455 (2%) got an active call. 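Active includes both protection and sensitisation; some change values fall well beyond the stated -50 to +50 range.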 Not given: the amount of reagent.

| Target gene | two-siRNA summed score (-2 to +2) | mean protection from cisplatin (shift in death) (%) | protection from cisplatin (shift in death), siRNA C (%) | protection from cisplatin (shift in death), siRNA D (%) | Outcome |
| --- | --- | --- | --- | --- | --- |
| PLAAT2 | 0 | -2.2 | -5.1 | 0.7 | inactive |
| LOC440112 | 0 | 20.7 | 25.7 | 15.6 | inactive |
| LOC392374 | 0 | 18.3 | 1 | 35.7 | inactive |
| ITGB2 | -1 | -0.6 | 28.2 | -29.4 | inactive |
| BEND7 | 0 | 10.4 | 7.8 | 13.1 | inactive |
| MADD | 1 | 6.3 | 15.2 | -2.5 | inactive |
| LOC441164 | 0 | 4.7 | -2.4 | 11.9 | inactive |
| ZDHHC1 | 1 | 8.2 | 5.3 | 11.1 | inactive |
| VDR | 0 | 12.5 | -17.1 | 42.2 | inactive |
| LOC390426 | 1 | 11.5 | 18.5 | 4.4 | inactive |
| NT5M | 0 | -1 | 3.9 | -5.9 | inactive |
| TRIM6-TRIM34 | 1 | 1.4 | -8.4 | 11.3 | inactive |
| LINC01191 | 0 | 6.5 | 5.3 | 7.6 | inactive |
| DPP10 | 0 | -3.1 | 5.7 | -11.9 | inactive |
| LOC400645 | 0 | 3.6 | 3.2 | 4 | inactive |
| LOC440483 | 0 | 7.1 | 5.5 | 8.8 | inactive |
| AURKA | -1 | -4.9 | -14.4 | 4.5 | inactive |
| TUBB4B | 0 | 5.1 | 12.5 | -2.4 | inactive |
| LOC441547 | 1 | 3.7 | -6.2 | 13.5 | inactive |
| LOC92755 | 0 | 12.5 | 5.6 | 19.4 | inactive |
| LOC388476 | 0 | 0.5 | 2.7 | -1.8 | inactive |
| OR4S1 | 0 | 9.4 | 13.9 | 4.8 | inactive |
| MTMR3 | 0 | 8.2 | 7 | 9.3 | inactive |
| D-2L | 0 | 13.8 | -1.9 | 29.5 | inactive |
| WFDC9 | 1 | 11.6 | 3.1 | 20.2 | inactive |
| PUDP | 1 | 17.1 | 20.9 | 13.2 | inactive |
| NIFK | 0 | -2.8 | -1.8 | -3.9 | inactive |
| BANP | 1 | 10.2 | 13.6 | 6.7 | inactive |
| GARS1 | -1 | -9.1 | -11.5 | -6.7 | inactive |
| LOC441503 | 0 | 11.5 | 5.5 | 17.4 | inactive |
| CARTPT | 0 | 6.2 | 4.8 | 7.7 | inactive |
| ZFAND5 | 1 | 14.9 | 14.2 | 15.6 | inactive |
| ZNF710 | 0 | 7.3 | 12.3 | 2.4 | inactive |
| ENTPD2 | 1 | 10.3 | 7.8 | 12.9 | inactive |
| PCDHA12 | 0 | 6.4 | 9.3 | 3.5 | inactive |
| BTBD7 | 0 | 13.2 | 11 | 15.4 | inactive |
| NDUFV3 | 0 | 17.6 | 13.4 | 21.9 | inactive |
| LOC391776 | 0 | 3 | -3 | 9 | inactive |
| SLC29A4 | 1 | 10.4 | 8.1 | 12.7 | inactive |
| HOXB7 | 0 | 9.6 | 6.1 | 13 | inactive |
| HOXC12 | 0 | 4.1 | 11.6 | -3.3 | inactive |
| COL4A3 | 1 | 16.9 | 33 | 0.7 | inactive |
| OOSP2 | 0 | 12.9 | 17.3 | 8.6 | inactive |
| ABCA11P | 1 | 7.5 | 25.2 | -10.2 | inactive |
| XXYLT1 | -1 | -16.5 | -28 | -5 | inactive |
| OR1D2 | -1 | -10.2 | 4.7 | -25 | inactive |
| LOC440280 | 0 | 12.3 | 13.5 | 11 | inactive |
| DPH2 | 1 | 16.4 | 23 | 9.7 | inactive |
| PPM1G | 1 | 6.7 | 9.4 | 4.1 | inactive |
| MTHFD2 | 0 | 5.3 | 11.2 | -0.6 | inactive |
| PNCK | 0 | 34.5 | 21.3 | 47.8 | inactive |
| MSLN | -1 | -11.8 | -2 | -21.6 | inactive |
| LOC441873 | 1 | 12.7 | 10.3 | 15.2 | inactive |
| CCNB2 | 0 | -9.9 | -6.3 | -13.5 | inactive |
| CACNA1S | -1 | -1.3 | 11.4 | -14 | inactive |
| LOC402679 | 0 | 3.7 | 10.1 | -2.7 | inactive |
| PTK7 | 0 | 6.1 | -2.9 | 15 | inactive |
